Results reported in PMC4899871.
Results are given in words; binding and its absence hold for the method and conditions named. In cells and extracts the contact can be indirect. Some entries that bind do so weakly or less than the wild type. Sequences can lack the tags named with a protein.

The chains behind the UniProt entries cited, without tags or fusion partners. Where a name states a change or a piece, a line headed by the entry shows the natural chain unless it says otherwise. A line that says so, or that is headed by a name, gives the form on record, which may keep a tag or linker.
UniProt Q676U5: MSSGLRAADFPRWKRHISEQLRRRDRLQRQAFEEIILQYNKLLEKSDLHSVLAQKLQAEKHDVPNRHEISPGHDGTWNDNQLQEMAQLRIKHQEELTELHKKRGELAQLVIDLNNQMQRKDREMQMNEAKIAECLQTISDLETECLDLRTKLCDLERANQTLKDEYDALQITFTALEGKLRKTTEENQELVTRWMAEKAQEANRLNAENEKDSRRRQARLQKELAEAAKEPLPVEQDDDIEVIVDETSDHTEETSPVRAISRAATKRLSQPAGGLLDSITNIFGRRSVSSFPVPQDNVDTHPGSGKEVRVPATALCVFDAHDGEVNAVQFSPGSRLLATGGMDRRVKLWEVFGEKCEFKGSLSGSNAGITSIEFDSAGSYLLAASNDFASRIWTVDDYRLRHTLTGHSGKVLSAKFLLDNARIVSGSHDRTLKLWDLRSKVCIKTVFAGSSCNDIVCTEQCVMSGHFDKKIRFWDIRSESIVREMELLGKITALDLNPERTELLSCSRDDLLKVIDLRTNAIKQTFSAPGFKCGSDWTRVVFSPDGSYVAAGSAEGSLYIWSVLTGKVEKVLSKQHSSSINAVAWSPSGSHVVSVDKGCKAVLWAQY
GST-ATG16L1-A300 (Q676U5, form named): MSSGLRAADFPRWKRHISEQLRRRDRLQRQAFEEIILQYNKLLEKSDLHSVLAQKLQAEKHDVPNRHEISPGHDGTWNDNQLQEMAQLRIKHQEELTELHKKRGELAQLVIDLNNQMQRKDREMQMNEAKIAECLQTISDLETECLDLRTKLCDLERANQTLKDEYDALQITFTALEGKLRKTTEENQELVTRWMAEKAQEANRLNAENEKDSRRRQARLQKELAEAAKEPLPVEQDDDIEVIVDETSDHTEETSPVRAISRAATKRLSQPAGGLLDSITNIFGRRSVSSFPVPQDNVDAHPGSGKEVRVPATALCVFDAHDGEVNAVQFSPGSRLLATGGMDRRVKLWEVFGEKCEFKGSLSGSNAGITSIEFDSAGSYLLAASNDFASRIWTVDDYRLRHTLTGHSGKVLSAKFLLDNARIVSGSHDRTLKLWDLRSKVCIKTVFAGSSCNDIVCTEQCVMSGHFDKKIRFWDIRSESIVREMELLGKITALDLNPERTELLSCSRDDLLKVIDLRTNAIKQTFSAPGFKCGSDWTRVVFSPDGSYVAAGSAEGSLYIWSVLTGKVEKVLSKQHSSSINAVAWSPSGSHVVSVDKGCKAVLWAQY

How the values were obtained:
[1] = target: GST-ATG16L1 (T300 form) (human) (UniProt Q676U5); test: co-IP; HEK-293T cells transfected with both partners and lysed 36 h after transfection (1% Igepal CA-630, 50 mM Tris HCl pH 7.5, 150 mM NaCl, 5 mM EDTA); lysate diluted to 0.2% detergent; the GST fusion precipitated on glutathione-agarose (4 °C, 1-3 h); immunoblot
GST-ATG16L1-A300 (human) = GST-ATG16L1-A300 (human) (UniProt Q676U5); test: as above

binding [1]: binds
binding (GST-ATG16L1-A300 (human)): binds
B1: TMEM59 (found in GST-ATG16L1 precipitates) (protein, UniProt Q9BXS4 36-323)
chain: EAFDSVLGDTASCHRACQLTYPLHTYPKEEELYACQRGCRLFSICQFVDDGIDLNRTKLECESACTEAYSQSDEQYACHLGCQNQLPFAELRQEQLMSLMPKMHLLFPLTLVRSFWSDMMDSAQSFITSSWTFYLQADDGKIVIFQSKPEIQYAPHLEQEPTNLRESSLSKMSYLQMRNSQAHRNFLEDGESDGFLRCLSLNSGWILTTTLVLSVMVLLWICCATVATAVEQYVPSEKLSIYGDLEFMNEQKLNRYPASSLVVVRSKTEDHEEAGPLPTKVNLAHSEI
